Assay results from the supplement of paper PMC11732987, “Enantioselective OTUD7B fragment discovery through chemoproteomics screening and high-throughput optimisation” (Communications Chemistry, 2025).
The list shows a part of the results. The data scatter; read single values as rough.

Amino acid sequences for entries named in this document (tags omitted). A change or cut given only in a name is not applied to a line headed by its entry. Residues count along the entry.
UniProt Q8NFA0, 1316-1336: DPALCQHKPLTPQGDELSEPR
UniProt P22415: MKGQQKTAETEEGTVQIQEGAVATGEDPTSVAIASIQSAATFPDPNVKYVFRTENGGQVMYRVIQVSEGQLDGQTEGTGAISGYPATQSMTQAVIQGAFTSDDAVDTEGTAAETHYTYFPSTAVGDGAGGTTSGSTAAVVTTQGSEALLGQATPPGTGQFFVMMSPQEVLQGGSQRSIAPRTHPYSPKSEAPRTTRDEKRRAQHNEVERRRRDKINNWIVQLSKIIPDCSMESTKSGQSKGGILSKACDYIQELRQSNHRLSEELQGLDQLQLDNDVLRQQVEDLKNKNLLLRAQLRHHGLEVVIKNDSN
UniProt Q96RU2: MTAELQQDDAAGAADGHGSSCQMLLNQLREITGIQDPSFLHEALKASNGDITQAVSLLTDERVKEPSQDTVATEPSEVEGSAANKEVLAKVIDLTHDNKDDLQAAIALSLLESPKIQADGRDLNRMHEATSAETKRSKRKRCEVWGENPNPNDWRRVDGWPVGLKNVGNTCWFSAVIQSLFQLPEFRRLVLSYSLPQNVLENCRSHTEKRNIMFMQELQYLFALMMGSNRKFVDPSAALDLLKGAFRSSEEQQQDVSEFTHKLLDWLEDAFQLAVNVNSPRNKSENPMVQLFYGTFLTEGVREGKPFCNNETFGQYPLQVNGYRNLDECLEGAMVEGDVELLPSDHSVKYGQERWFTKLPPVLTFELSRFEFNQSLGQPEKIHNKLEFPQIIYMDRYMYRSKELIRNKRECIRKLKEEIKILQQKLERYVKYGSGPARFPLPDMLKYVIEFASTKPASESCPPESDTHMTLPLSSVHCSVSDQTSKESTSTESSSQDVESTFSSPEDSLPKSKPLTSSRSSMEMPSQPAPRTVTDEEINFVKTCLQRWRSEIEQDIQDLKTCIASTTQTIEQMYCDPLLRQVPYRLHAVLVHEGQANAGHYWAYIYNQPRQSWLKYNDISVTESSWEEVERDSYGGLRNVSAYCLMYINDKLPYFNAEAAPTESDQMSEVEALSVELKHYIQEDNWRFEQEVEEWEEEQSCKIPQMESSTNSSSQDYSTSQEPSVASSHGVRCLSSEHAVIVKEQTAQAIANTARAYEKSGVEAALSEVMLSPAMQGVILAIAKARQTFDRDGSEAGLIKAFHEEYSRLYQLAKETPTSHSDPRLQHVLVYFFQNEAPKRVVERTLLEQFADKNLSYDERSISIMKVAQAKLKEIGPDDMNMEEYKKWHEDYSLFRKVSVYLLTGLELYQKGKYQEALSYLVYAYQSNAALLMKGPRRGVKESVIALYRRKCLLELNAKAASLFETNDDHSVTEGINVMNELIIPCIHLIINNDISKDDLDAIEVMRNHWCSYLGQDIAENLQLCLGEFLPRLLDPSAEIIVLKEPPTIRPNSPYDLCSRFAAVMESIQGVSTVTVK
UniProt P46939, 275-297: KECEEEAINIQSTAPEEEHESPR
UniProt Q8TEY7, 752-774: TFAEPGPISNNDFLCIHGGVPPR
UniProt Q70CQ2: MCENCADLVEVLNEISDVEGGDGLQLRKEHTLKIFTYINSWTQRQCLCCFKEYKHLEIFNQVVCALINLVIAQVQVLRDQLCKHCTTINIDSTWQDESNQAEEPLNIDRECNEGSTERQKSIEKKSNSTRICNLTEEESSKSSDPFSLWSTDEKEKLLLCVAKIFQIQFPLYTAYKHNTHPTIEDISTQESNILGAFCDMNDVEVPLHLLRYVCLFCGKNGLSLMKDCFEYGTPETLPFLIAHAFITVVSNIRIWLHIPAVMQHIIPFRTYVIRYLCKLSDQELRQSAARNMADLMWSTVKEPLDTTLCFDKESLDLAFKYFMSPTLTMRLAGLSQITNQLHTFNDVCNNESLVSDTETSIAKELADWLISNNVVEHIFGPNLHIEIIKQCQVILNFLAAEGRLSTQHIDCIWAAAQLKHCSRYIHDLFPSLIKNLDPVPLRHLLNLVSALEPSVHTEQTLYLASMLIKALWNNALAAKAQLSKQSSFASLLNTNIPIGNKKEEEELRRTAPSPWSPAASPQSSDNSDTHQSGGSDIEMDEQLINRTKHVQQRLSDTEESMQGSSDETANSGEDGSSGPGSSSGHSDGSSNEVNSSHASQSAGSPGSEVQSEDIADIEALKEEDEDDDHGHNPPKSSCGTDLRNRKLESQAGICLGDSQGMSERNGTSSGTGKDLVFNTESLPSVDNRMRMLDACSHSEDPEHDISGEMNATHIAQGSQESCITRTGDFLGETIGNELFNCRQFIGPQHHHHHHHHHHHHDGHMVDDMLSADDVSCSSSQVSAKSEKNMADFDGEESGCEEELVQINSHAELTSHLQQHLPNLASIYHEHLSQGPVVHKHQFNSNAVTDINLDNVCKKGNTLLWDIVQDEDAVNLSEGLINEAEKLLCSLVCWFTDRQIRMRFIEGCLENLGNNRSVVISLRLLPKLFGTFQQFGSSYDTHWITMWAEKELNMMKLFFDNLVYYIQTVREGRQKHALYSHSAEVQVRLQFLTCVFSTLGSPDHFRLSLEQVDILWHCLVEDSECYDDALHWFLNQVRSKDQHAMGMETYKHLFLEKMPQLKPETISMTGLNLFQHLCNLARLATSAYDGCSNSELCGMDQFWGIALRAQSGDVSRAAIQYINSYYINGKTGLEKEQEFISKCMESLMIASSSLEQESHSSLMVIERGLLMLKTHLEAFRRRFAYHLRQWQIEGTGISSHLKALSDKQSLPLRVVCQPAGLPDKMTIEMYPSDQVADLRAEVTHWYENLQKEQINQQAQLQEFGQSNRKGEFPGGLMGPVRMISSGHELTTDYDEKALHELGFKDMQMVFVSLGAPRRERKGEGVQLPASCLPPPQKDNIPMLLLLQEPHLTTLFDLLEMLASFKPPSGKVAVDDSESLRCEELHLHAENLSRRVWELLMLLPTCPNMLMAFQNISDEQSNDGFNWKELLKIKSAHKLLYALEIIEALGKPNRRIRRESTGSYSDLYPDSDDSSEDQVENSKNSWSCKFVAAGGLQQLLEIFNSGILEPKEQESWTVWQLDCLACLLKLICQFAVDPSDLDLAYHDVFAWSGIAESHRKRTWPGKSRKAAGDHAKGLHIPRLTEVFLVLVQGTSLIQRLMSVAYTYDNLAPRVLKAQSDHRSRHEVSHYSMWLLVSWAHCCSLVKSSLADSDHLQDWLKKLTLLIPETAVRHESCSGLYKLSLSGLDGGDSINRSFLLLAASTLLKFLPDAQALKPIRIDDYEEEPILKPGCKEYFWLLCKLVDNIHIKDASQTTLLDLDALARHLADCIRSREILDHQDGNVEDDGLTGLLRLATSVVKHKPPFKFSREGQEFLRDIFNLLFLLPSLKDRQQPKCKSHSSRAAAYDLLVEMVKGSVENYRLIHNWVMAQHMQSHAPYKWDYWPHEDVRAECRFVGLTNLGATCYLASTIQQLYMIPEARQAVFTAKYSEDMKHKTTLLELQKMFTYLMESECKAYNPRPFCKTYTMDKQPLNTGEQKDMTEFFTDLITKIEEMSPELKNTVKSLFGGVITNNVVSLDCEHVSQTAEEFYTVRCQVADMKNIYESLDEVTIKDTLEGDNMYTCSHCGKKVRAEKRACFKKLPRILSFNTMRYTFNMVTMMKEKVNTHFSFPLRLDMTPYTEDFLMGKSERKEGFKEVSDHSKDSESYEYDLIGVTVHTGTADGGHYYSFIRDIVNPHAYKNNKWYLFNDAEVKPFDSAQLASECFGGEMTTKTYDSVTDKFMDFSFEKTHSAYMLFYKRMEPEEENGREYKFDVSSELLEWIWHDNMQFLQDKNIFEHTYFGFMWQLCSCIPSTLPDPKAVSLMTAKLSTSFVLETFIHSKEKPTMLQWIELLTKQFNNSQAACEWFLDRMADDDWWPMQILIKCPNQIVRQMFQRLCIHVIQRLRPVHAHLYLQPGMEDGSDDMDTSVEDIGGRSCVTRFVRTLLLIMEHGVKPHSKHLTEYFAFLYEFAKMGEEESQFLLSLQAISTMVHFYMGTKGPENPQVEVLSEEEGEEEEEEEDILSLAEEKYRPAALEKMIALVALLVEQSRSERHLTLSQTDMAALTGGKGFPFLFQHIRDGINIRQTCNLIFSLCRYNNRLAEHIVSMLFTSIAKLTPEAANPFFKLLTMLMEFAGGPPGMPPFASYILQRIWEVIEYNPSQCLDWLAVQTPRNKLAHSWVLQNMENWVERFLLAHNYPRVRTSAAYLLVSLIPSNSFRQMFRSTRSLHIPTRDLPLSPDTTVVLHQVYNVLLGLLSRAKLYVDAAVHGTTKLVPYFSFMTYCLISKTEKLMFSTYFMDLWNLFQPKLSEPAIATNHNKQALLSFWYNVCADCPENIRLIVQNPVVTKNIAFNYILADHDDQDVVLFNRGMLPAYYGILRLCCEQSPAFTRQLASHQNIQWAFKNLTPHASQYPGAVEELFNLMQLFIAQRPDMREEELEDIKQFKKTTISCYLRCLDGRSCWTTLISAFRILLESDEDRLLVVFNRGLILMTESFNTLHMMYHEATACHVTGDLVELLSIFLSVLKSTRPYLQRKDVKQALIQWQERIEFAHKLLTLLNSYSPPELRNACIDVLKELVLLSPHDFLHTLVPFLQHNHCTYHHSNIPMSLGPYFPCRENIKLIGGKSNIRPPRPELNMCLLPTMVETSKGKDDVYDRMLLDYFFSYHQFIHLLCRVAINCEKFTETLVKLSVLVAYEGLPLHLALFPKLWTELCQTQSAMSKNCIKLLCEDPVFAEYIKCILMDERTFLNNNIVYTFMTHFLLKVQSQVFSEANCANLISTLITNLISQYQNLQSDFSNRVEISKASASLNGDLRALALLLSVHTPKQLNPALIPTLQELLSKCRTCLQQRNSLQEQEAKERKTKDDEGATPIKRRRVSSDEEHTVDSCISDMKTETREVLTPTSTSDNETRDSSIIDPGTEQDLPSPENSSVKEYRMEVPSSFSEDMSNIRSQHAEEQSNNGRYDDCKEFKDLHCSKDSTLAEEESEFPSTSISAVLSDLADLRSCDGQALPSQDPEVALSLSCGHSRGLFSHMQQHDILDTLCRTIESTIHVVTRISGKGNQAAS
UniProt P08670, 322-342: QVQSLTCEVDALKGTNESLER
UniProt Q92900: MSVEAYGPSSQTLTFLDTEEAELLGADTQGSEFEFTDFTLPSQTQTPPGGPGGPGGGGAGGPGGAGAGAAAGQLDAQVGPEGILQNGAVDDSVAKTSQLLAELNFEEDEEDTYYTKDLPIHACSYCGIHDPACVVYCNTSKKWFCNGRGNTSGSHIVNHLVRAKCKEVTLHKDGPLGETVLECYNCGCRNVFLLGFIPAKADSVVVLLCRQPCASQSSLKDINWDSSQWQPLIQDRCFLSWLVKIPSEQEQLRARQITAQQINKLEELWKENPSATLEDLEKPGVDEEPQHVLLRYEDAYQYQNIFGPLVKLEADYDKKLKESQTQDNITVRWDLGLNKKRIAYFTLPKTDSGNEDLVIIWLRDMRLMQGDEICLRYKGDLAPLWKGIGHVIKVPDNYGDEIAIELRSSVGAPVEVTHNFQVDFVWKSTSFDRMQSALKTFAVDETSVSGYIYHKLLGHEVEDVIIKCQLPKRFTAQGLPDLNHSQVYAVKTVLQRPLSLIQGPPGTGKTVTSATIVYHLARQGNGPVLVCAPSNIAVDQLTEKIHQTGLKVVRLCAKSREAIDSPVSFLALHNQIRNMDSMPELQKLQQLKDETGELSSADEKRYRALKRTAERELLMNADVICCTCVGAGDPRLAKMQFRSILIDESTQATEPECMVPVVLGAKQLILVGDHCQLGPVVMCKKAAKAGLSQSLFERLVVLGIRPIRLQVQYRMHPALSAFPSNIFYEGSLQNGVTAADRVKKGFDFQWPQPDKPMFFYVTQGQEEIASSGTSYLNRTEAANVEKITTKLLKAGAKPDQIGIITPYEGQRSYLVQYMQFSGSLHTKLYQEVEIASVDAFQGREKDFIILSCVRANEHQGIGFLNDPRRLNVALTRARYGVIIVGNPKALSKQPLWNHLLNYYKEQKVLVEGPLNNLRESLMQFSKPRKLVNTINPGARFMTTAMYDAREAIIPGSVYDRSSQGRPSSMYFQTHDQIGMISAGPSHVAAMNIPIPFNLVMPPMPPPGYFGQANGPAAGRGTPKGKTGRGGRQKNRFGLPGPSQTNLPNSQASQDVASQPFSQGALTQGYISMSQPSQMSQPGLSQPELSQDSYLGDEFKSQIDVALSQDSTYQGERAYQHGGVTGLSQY
UniProt Q9NQZ2, 354-373: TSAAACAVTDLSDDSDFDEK
UniProt P10746: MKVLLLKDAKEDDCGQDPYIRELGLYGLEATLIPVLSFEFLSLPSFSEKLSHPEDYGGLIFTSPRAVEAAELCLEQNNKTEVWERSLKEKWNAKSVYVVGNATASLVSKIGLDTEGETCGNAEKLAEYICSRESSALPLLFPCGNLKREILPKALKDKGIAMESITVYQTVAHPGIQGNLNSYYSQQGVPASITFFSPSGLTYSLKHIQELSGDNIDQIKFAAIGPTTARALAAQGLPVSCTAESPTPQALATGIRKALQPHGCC

Legend:
[1] = compound: ClCC(=O)N[C@@H]1CCCc2ccccc12; assay: log2 mean competition ratio of IA-DTB cysteine labelling (DMSO/compound) (log2 ratio); higher = stronger cysteine engagement by compound; settings: treatment time: 4 h, cell line lysate: HEK293T
Procedure: (§1)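 IA-DTB competitive cysteine chemoproteomics in HEK293T RIPA lysate. Lysates were treated with compound 29 or 30 at 50 or 200 µM for 4 h, then IA-DTB (500 µM, 1 h), trypsin-digested, NeutrAvidin-enriched and analysed by diaPASEF. Competition ratio = intensity DMSO / intensity compound (n=4 treated, n=64 DMSO); binding: mean log2 CR ≥ 1 and p ≤ 0.05 plus QC filters. Target is the cysteine site.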

[2] = compound: ClCC(=O)N[C@H]1CCCc2ccccc12; assay: as above; settings: treatment time: 4 h, cell line lysate: HEK293T
Procedure: as §1

| Target | log2 mean competition ratio ([1]; 50 µM) | log2 mean competition ratio ([1]; 200 µM) | log2 mean competition ratio ([2]; 50 µM) | log2 mean competition ratio ([2]; 200 µM) |
| --- | --- | --- | --- | --- |
| USP32 C1320 (UniProt Q8NFA0) | -0.00834 | 0.14 | 0.242 | 0.215 |
| VPS13B C3937 (UniProt Q7Z7G8) | 0.137 | 0.0448 | -0.102 | 0.406 |
| USF1 C248 (UniProt P22415) | 0.195 | 0.0208 | 0.591 | 0.163 |
| UHRF2 C541 (UniProt Q96PU4) | -0.171 | 0.278 | -0.573 | 0.161 |
| UBXN7 C160 | 0.0102 | -0.155 | -0.0446 | -0.139 |
| USP36 C302 (UniProt Q9P275) | -0.192 | 0.111 | -0.0954 | 0.0878 |
| USP24 C1287 (UniProt Q9UPU5) | -0.288 | 0.214 | 0.0954 | 0.269 |
| USP28 C1058 (UniProt Q96RU2) | -0.065 | 0.046 | 0.445 | 0.155 |
| USP28 C142 (UniProt Q96RU2) | -0.0536 | 0.0966 | 0.452 | 0.133 |
| URB1 C169 (UniProt O60287) | 0.0143 | 0.0296 | 0.0287 | -0.155 |
| UTRN C277 (UniProt P46939) | -0.0431 | -0.345 | -0.4 | -0.347 |
| VPS26C C137 (UniProt O14972) | 0.33 | 0.104 | -0.144 | 0.0134 |
| USP38 C180 (UniProt Q8NB14) | -0.0589 | 0.35 | 0.216 | 0.343 |
| URB2 C1280 (UniProt Q14146) | 0.0994 | 0.281 | -0.646 | 0.302 |
| USP33 C766 (UniProt Q8TEY7) | 0.371 | 0.129 | -0.303 | -0.0394 |
| USP48 C850 (UniProt Q86UV5) | -0.204 | -0.102 | -0.0854 | -0.0674 |
| USP34 C1674 (UniProt Q70CQ2) | -0.0646 | 0.0734 | -0.133 | 0.0746 |
| VARS1 C682 | 0.0389 | -0.174 | 0.0979 | -0.142 |
| VAC14 C324 (UniProt Q08AM6) | 0.285 | 0.0262 | 0.0663 | -0.00502 |
| USP9X C2107 (UniProt Q93008) | -0.256 | -0.201 | -0.266 | -0.196 |
| VIM C328 (UniProt P08670) | -0.627 | 0.0826 | -0.152 | 0.256 |
| USP54 C1096 (UniProt Q70EL1) | 0.191 | 0.453 | 0.103 | 0.55 |
| VAC14 C114 (UniProt Q08AM6) | 0.394 | 0.0713 | 0.154 | 0.0916 |
| USP24 C1859 (UniProt Q9UPU5) | -0.0392 | -0.173 | -0.0312 | -0.294 |
| VPS33B C546 (UniProt Q9H267) | 0.312 | -0.079 | -0.278 | -0.238 |

| Target | log2 mean competition ratio ([1]; 50 µM) | log2 mean competition ratio ([1]; 200 µM) | log2 mean competition ratio ([2]; 50 µM) | log2 mean competition ratio ([2]; 200 µM) |
| --- | --- | --- | --- | --- |
| UPF1 C213 (UniProt Q92900) | -0.168 | 0.2 | -0.176 | 0.078 |
| VPS11 C231 (UniProt Q9H270) | 0.236 | 0.129 | -0.323 | 0.00295 |
| UTP3 C359 (UniProt Q9NQZ2) | -0.305 | -0.157 | 0.144 | 0.0184 |
| USP37 C318 (UniProt Q86T82) | 0.103 | 0.302 | -0.186 | 0.232 |
| VDAC2 C103 | 0.553 | 0.328 | 0.0934 | 0.19 |
| USP28 C733 (UniProt Q96RU2) | -0.0345 | -0.0899 | -0.355 | -0.025 |
| VEZT C665 | -0.156 | -0.0135 | -0.0916 | 0.0383 |
| VARS1 C41 | 0.00665 | -0.12 | 0.017 | -0.0214 |
| UPF1 C852 (UniProt Q92900) | 0.123 | 0.106 | 0.232 | -0.126 |
| USP34 C1215 (UniProt Q70CQ2) | 0.158 | -0.0337 | -0.0363 | -0.121 |
| VCAN C3296 | 0.126 | -0.00579 | -0.281 | -0.214 |
| UMPS C304 (UniProt P11172) | -0.42 | -0.0976 | 0.26 | -0.22 |
| USP48 C39 (UniProt Q86UV5) | -0.0688 | -0.0915 | 0.143 | 0.148 |
| USP9X C577 (UniProt Q93008) | -0.396 | -0.157 | -0.224 | 0.0835 |
| USP11 C894 (UniProt P51784) | -0.186 | 0.0591 | 0.00738 | 0.0695 |
| UTRN C3023 (UniProt P46939) | 0.443 | 0.0612 | 0.0632 | 0.0129 |
| UNKL C213 (UniProt E9PDK2) | 0.146 | 0.03 | 0.0797 | -0.00485 |
| VEZT C41 | 0.0676 | 0.0798 | -0.111 | 0.0158 |
| ULBP2 C50 (UniProt Q9BZM5) | 0.55 | 0.273 | -0.0282 | 0.36 |
| UHRF1 C497 (UniProt Q96T88) | -0.195 | 0.0573 | -0.153 | 0.0505 |
| USP24 C1516 (UniProt Q9UPU5) | 0.242 | 0.461 | 0.38 | 0.105 |
| URGCP C905 (UniProt Q8TCY9) | 0.0187 | -0.361 | 0.049 | -0.322 |
| USP47 C1138 (UniProt Q96K76) | 0.0813 | 0.106 | -0.0175 | 0.107 |
| UROS C130 (UniProt P10746) | -0.142 | -0.349 | 0.129 | 0.0776 |

4 successive entries out of the list so far:

| Target | log2 mean competition ratio ([1]; 50 µM) | log2 mean competition ratio ([1]; 200 µM) | log2 mean competition ratio ([2]; 50 µM) | log2 mean competition ratio ([2]; 200 µM) |
| --- | --- | --- | --- | --- |
| VEZT C665 | -0.156 | -0.0135 | -0.0916 | 0.0383 |
| VARS1 C41 | 0.00665 | -0.12 | 0.017 | -0.0214 |
| UPF1 C852 (UniProt Q92900) | 0.123 | 0.106 | 0.232 | -0.126 |
| USP34 C1215 (UniProt Q70CQ2) | 0.158 | -0.0337 | -0.0363 | -0.121 |
